The exact form of at least one protein or probe is not confirmed. For part of these data: The comparison behind a weaker result is the experiment's own reference, which may not be listed here. For part of these data: At least one result comes from cells or an extract, where the contact may be indirect.
Columns and labels:
Assay in all cases: sandwich ELISA
CD44 HABD = CD44 HABD (UniProt P16070); details: 5 mM Mg2+, hardly associated (Results), 'does not bind' (Discussion); ELISA: 1X binding buffer (DPBS, 4.5 g/L glucose, 5 mM MgCl2, 100 mg/L yeast tRNA, 1 g/L BSA), room temperature, 1 h; pH not stated; recombinant protein; protein details: His; single-stranded DNA
CD44E (CD44v8-10) = details: 5 mM Mg2+; ELISA: 1X binding buffer (DPBS, 4.5 g/L glucose, 5 mM MgCl2, 100 mg/L yeast tRNA, 1 g/L BSA), room temperature, 1 h; pH not stated; protein in a lysate after overexpression; single-stranded DNA
CD44s (standard isoform) = details: 5 mM Mg2+; ELISA: 1X binding buffer (DPBS, 4.5 g/L glucose, 5 mM MgCl2, 100 mg/L yeast tRNA, 1 g/L BSA), room temperature, 1 h; pH not stated; protein in a lysate after overexpression; single-stranded DNA

Amino acid sequences for entries named in this document (tags omitted). Residues count along the entry.
UniProt P16070, 21-178: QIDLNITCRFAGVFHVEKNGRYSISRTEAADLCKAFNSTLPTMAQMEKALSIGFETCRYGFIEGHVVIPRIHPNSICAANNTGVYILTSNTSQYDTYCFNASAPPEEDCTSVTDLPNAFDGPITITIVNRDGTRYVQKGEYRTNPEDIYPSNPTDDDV

What does the source list for “ATCCAGAGTGACGCAGCATCGCAACGATTAGTATGCACCCACCGTATAGGTTGGTCTCTGGACACGGTGGCTTAGT [CD44-Apt1, biotin-labelled]”?
binding result (CD44 HABD): binds more weakly; Kd (CD44E (CD44v8-10)): 1.22 nM; Kd (CD44s (standard isoform)): 2.09 nM
